Measurements as given in the supplement of paper PMC8728848.
The list shows a part of the results.

Legend:
[1] = target: Neu5Gc(a2-8)Neu5Gc(a2-6)Gal(b1-4)GlcNAc; experiment: glycan array binding signal (z-score within array); higher = stronger binding; details: glycan notation: IUPAC condensed, linker removed
Procedure, shortened: (§1)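 The Consortium for Functional Glycomics database supplied 3228 glycan arrays, of which those lacking an available protein sequence were dropped. The binding signal, a within-array Z-score, was averaged across arrays of the same protein sequence and across linkers. Negative scores can be read as non-binding.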

[2] = target: Neu5Gc(b2-6)Gal(b1-4)GlcNAc; experiment: as above; details: glycan notation: IUPAC condensed, linker removed
Procedure, shortened: as §1

B1: TAL6-6LysM (Trichoderma atroviride) (protein)
chain: AASKLGVPQPAQRDQVNCQLYAVQPNDNCIDISSKNNITYAQLLSWNPSLSSTCSNLASLNSSSICVSNPKGTFSISSNTVGATDIATTTAPVPSPTLDQTTSRCAKYYQVSDGDDCSHLTAQFAITLKDFIFLNSEVWQNCTNLELGYYYCVEPVGYISTYPGYLPTATTKPFNQTSATSLPYDGDPWARFSSNSSVIPIANGTRVDCYSYVYVKNLTENLFADCWNMASMYEITREELVLWNPSLGNDGSSGSNLSGAEASQVASSIAIPTTAPSSITTNLYTYPCTVAANISYCVALVSSTGALPTNTAPPGPHASGEISNCTAWFAPEAYDTCKSILDIFEMSFANFYKMNPSVGPDCSGLAVGTNYCVSTYPNGEDPNDDWDGDDSIPSISPTGIITPTPTQSGMVSNCNKFYDVHSNDGCSAIASSQHVDLSSLYKWNPAIKTDCSGLQASVYVCIGILTTSMSTTSKLPTTTSKPSTTSKPPTGITTPTPTQSGMVKNCNKFYDVHSGDGCSAIASSQKVNLSSFYLWNPAVKTDCSGLQASVFVCIGTLTTSMSTTTSKLPTTTSKPSTTSKPPTGIITPTPTQNGMVKNCNKFYDVHSGDGCSAIASSQKVNLSSFYLWNPAVKTDCSGLQASVFVCVGTATTTTAAGITTPTPTQSGMVSGCNKFYDVHAGDGCSAIASSQKIALSSLYKWNPAVKTDCSGLQASVYICIGVGNAAAARVTGAAASFLEQKLISEEDLNSAVDHHHHHH
[1]
  glycan array binding signal (z-score): -0.455
[2]
  glycan array binding signal (z-score): 0.217
